Results published in patent US20230293405A1, “Compositions Comprising UV-Filters and One or More (Bio)-Alkanediols” (Symrise AG, priority 2020, published 2023).

Assay: Sensory properties of oil component blended with alkanediol, assessed by untrained panelists on the backside of the hand
Assay type: in vivo
Conditions: for Spreading with: 30 s after application; for Spreading with / Fatty/greasy skin feeling with: scale 1 (low) to 5 (high); for Fatty/greasy skin feeling with: after 2 minutes; for Fatty/greasy skin feeling Delta / Spreading Delta: with vs without alkanediol
Excerpt: For evaluating the sensory behavior, oil components specified in the following Table 13 were blended with 1,2-heptanediol or 2,3-heptanediol or a mixture of 1,2-heptanediol and 2,3-heptanediol or 1,2-octanediol or 2,3-octanediol or a mixture of 1,2-octanediol and 2,3-octanediol (formulation) and assessed by untrained panelists in comparison to the oil component without addition of the specified alkanediols (placebo).
Test procedure: • Hands were pre-washed with liquid soap by following a defined procedure; • 30 μl of corresponding sample was applied on the backside of each hand (randomized); • After 30 s the spreading behavior of the respective formulation on skin was evaluated versus the respective oil component without 1,2-heptanediol on a scale from 1 to 5 (1=low spreading; 5=high spreading); • The samples were distributed with the fingertips of middle and forefinger with 2×5 cycles; • After 2 minutes, the fatty/greasy skin feeling was evaluated on a scale from 1 to 5 (1=low fatty/greasy skin feeling; 5=high fatty/greasy skin feeling); • Furthermore, the applicants were asked to assess the absorption, i.e. the impression of amount of remaining residue on the skin on a scale from 1 to 5 (1=low absorption; 5=high absorption).

[1] = in Butyrospermum Parkii (Shea) Butter
[2] = in Caprylic Capric Triglyceride (neutral oil)
[3] = in Cetearyl Nonanoate (SymMollient S)
[4] = in Ethylhexyl Methoxycinnamate (Neo Heliopan AV)
[5] = in Ethylhexyl Salicylate (Neo Heliopan OS)
[6] = in Helianthus Annuus (Sunflower) Seed Oil
[7] = in Homosalate (Neo Heliopan HMS)
[8] = in Isoamyl p-Methoxycinnamate (Neo Heliopan E 1000)
[9] = in Octocrylene (Neo Heliopan 303)
[10] = in Propanediol Dicaprylate/Dicaprate (Symollient PDCC)
[11] = in Prunus Amygdalus Dulcis (Sweet Almond) Oil
[12] = in Simmondsia Chinensis (Jojoba) Seed Oil

CCCCCC(O)CO (stereo not shown) [1,2-heptanediol]
Spreading with (in Argan Oil): 4.2 | Fatty/greasy skin feeling with (in Argan Oil): 2.4 | Fatty/greasy skin feeling Delta (in Argan Oil): 1.6 | Spreading Delta (in Argan Oil): 2.2 | Spreading with (in Avocado Oil): 4.4 | Fatty/greasy skin feeling with (in Avocado Oil): 2.6 | Fatty/greasy skin feeling Delta (in Avocado Oil): 1.2 | Spreading Delta (in Avocado Oil): 2.2 | Spreading with [1]: 4 | Fatty/greasy skin feeling with [1]: 2 | Fatty/greasy skin feeling Delta [1]: 2 | Spreading Delta [1]: 2 | Spreading with (in Cacao butter): 3.8 | Fatty/greasy skin feeling with (in Cacao butter): 3 | Fatty/greasy skin feeling Delta (in Cacao butter): 1.2 | Spreading Delta (in Cacao butter): 2 | Spreading with [2]: 3.4 | Fatty/greasy skin feeling with [2]: 2.9 | Fatty/greasy skin feeling Delta [2]: 0.3 | Spreading Delta [2]: 1.5 | Spreading with (in Castor Oil): 2.2 | Fatty/greasy skin feeling with (in Castor Oil): 2.8 | Fatty/greasy skin feeling Delta (in Castor Oil): 1.4 | Spreading Delta (in Castor Oil): 1 | Spreading with [3]: 4.2 | Fatty/greasy skin feeling with [3]: 2 .5 | Fatty/greasy skin feeling Delta [3]: 0.7 | Spreading Delta [3]: 2.5 | Spreading with (in Chlorella oil (biotech)): 4 | Fatty/greasy skin feeling with (in Chlorella oil (biotech)): 2.7 | Fatty/greasy skin feeling Delta (in Chlorella oil (biotech)): 0.3 | Spreading Delta (in Chlorella oil (biotech)): 2.7 | Spreading with (in Coconut Oil): 4.2 | Fatty/greasy skin feeling with (in Coconut Oil): 1.8 | Fatty/greasy skin feeling Delta (in Coconut Oil): 1.4 | Spreading Delta (in Coconut Oil): 1.8 | Spreading with [4]: 3.7 | Fatty/greasy skin feeling with [4]: 3.2 | Fatty/greasy skin feeling Delta [4]: 0.5 | Spreading Delta [4]: 2.2 | Spreading with [5]: 4.3 | Fatty/greasy skin feeling with [5]: 1.8 | Fatty/greasy skin feeling Delta [5]: 1.9 | Spreading Delta [5]: 2.5 | Spreading with (in Grapeseed Oil): 3.8 | Fatty/greasy skin feeling with (in Grapeseed Oil): 2.2 | Fatty/greasy skin feeling Delta (in Grapeseed Oil): 2 | Spreading Delta (in Grapeseed Oil): 1.8 | Spreading with [6]: 4.2 | Fatty/greasy skin feeling with [6]: 2.3 | Fatty/greasy skin feeling Delta [6]: 1.5 | Spreading Delta [6]: 3 | Spreading with (in Hexyldecanol (Eutanol G)): 3.5 | Fatty/greasy skin feeling with (in Hexyldecanol (Eutanol G)): 3 | Fatty/greasy skin feeling Delta (in Hexyldecanol (Eutanol G)): 0 | Spreading Delta (in Hexyldecanol (Eutanol G)): 1 | Spreading with [7]: 2.8 | Fatty/greasy skin feeling with [7]: 3.2 | Fatty/greasy skin feeling Delta [7]: 0.5 | Spreading Delta [7]: 0.8 | Spreading with [8]: 2.7 | Fatty/greasy skin feeling with [8]: 2.7 | Fatty/greasy skin feeling Delta [8]: 1.3 | Spreading Delta [8]: 1.2 | Spreading with (in Microalgae oil): 3.8 | Fatty/greasy skin feeling with (in Microalgae oil): 2.7 | Fatty/greasy skin feeling Delta (in Microalgae oil): 0.8 | Spreading Delta (in Microalgae oil): 1.6 | Spreading with [9]: 2.7 | Fatty/greasy skin feeling with [9]: 3.3 | Fatty/greasy skin feeling Delta [9]: 1.5 | Spreading Delta [9]: 1.7 | Spreading with (in Olive Oil): 4 | Fatty/greasy skin feeling with (in Olive Oil): 2 | Fatty/greasy skin feeling Delta (in Olive Oil): 1.8 | Spreading Delta (in Olive Oil): 1.8 | Spreading with [10]: 2.9 | Fatty/greasy skin feeling with [10]: 2.5 | Fatty/greasy skin feeling Delta [10]: 0.2 | Spreading Delta [10]: 1.3 | Spreading with [11]: 3 | Fatty/greasy skin feeling with [11]: 2.5 | Fatty/greasy skin feeling Delta [11]: 0.8 | Spreading Delta [11]: 1.7 | Spreading with [12]: 4 | Fatty/greasy skin feeling with [12]: 2.8 | Fatty/greasy skin feeling Delta [12]: 1 | Spreading Delta [12]: 2.5
